Laboratory results: PubChem BioAssay AID1159508 (Drosophila RNAi Screening Center, 2015)
Shown is an unselected part of 812 reagents tested. 18 of them (2.2%) were called active. 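Calls include both increased and decreased ATP; roughly one in four reagents has no third replicate value.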 Unmarked entries are inactive. A plus sign joins genes that one reagent is predicted to hit. Reagent sequences are not shown. Not stated in the record: the amount of reagent.

- Purpose: 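Overall cell fitness after RNAi as a quality check of the library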
- System: Drosophila S2R+ cells
- Reagents: long dsRNA against Drosophila genes
- Time to read-out: 5 days
- Measurement: 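Total ATP per well measured by luciferase luminescence after 5 days, expressed as z-scores for each replicate and as their average across up to three replicates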
- Direction: mean ATP z-score and ATP z-score: higher = more total ATP luminescence
- Hit rule: In these data the active calls have mean ATP z-score at about -2 or lower, or at about 2 or higher
- Calls: active = strong ATP change (up or down); inactive = no strong ATP change

| Target gene | DRSC id | mean ATP z-score | ATP z-score, replicate 1 | ATP z-score, replicate 2 | ATP z-score, replicate 3 |
| --- | --- | --- | --- | --- | --- |
| Irp-1B | DRSC16720 | 1.13 | 0.894 | 0.968 | 1.32 |
| Irp-1B | DRSC24261 | -0.821 | -1.11 | -0.721 | -0.476 |
| ytr | DRSC25408 | -0.965 | -0.963 | -0.896 | -0.849 |
| ytr | DRSC40926 | 0.436 | 0.27 | 0.546 | – |
| stc | DRSC03620 | -0.464 | -0.513 | -0.435 | -0.355 |
| stc | DRSC40850 | -0.71 | -0.76 | -0.622 | -0.61 |
| mask | DRSC25063 | 1.36 | 0.745 | 1.5 | 1.56 |
| mask | DRSC32492 | 0.722 | 0.116 | 0.804 | 1.11 |
| eEFSec | DRSC04571 | -0.173 | -0.518 | -0.177 | 0.21 |
| eEFSec | DRSC42679 | 0.202 | 0.0959 | 0.186 | 0.285 |
| larp | DRSC28325 | -0.347 | -0.474 | -0.422 | -0.077 |
| larp | DRSC34672 | -1.18 | -1.34 | -1.25 | -0.731 |
| U3-55K | DRSC29090 | -0.0868 | -0.409 | -0.324 | 0.49 |
| U3-55K | DRSC40959 | 0.429 | -0.0296 | 0.833 | – |
| Dis3 | DRSC16034 | 0.0796 | 0.0482 | 0.0591 | 0.116 |
| Dis3 | DRSC42494 | -0.06 | -0.242 | 0.13 | – |
| CG3045 | DRSC04331 | 0.0461 | -0.477 | -0.0674 | 0.674 |
| CG3045 | DRSC42680 | -0.303 | -0.519 | -0.297 | -0.0349 |
| Cpsf160 | DRSC05968 | 0.787 | 0.509 | 0.832 | 0.866 |
| Cpsf160 | DRSC42648 | 0.178 | -0.135 | 0.077 | 0.557 |
| Spx | DRSC23542 | -1.99 | -2.03 | -1.79 | -1.76 |
| Spx | DRSC31760 | -1.01 | -1.23 | -0.665 | – |
| RNaseX25 | DRSC29835 | 0.777 | 0.332 | 1.12 | – |
| RNaseX25 | DRSC42384 | -0.383 | -0.716 | -0.00195 | – |
| Trmt6 | DRSC03272 | -0.345 | -0.435 | -0.308 | -0.227 |
| Trmt6 | DRSC42660 | -0.329 | -0.673 | -0.185 | -0.0651 |
| Rbm13 | DRSC25416 | 0.461 | -0.282 | 0.633 | 0.944 |
| Rbm13 | DRSC33595 | 0.172 | -0.327 | -0.323 | 1.13 |
| tra2 | DRSC07708 | -0.348 | -0.483 | -0.276 | -0.217 |
| tra2 | DRSC29704 | -0.481 | -0.554 | -0.346 | – |
| LSm3 | DRSC15920 | 0.233 | -0.407 | 0.406 | 0.654 |
| LSm3 | DRSC42711 | 0.0346 | -0.182 | -0.0948 | 0.374 |
| Csl4 | DRSC22664 | 0.887 | 0.786 | 0.874 | – |
| Csl4 | DRSC42663 | -0.903 | -1.02 | -0.823 | -0.69 |
| fus | DRSC05569 | 0.673 | 0.589 | 0.645 | 0.656 |
| fus | DRSC07107 | 0.126 | -0.484 | -0.289 | 1.13 |
| bbx + waw | DRSC20575 | -0.302 | -0.478 | -0.476 | 0.107 |
| bbx + waw | DRSC24894 | -0.766 | -0.907 | -0.707 | -0.537 |
| ncm | DRSC29504 | -1.06 | -1.13 | -0.858 | – |
| ncm | DRSC31773 | -0.267 | -0.287 | -0.213 | – |
| U2A | DRSC28070 | -1.05 | -1.27 | -0.698 | – |
| U2A | DRSC31826 | 0.763 | -0.165 | 0.854 | 1.45 |
| smg | DRSC11397 | -0.349 | -0.576 | -0.398 | -0.00672 |
| smg | DRSC28033 | 0.902 | 0.648 | 1.04 | – |
| Rrp45 | DRSC20198 | -0.583 | -0.599 | -0.492 | – |
| Rrp45 | DRSC29319 | -1.02 | -1.13 | -0.776 | – |
| heph | DRSC16783 | -0.665 | -0.7 | -0.601 | -0.566 |
| heph | DRSC39131 | -0.544 | -0.841 | -0.485 | -0.202 |
| CG2145 | DRSC19835 | -0.521 | -0.773 | -0.496 | -0.193 |
| CG2145 | DRSC27564 | -0.122 | -0.222 | -0.0609 | -0.0596 |
| Ude | DRSC15324 | 0.0307 | -0.393 | -0.242 | 0.721 |
| Ude | DRSC42704 | -0.12 | -0.862 | 0.203 | 0.322 |
| eIF3e | DRSC11199 | 0.792 | -0.0196 | 0.971 | 1.27 |
| eIF3e | DRSC31327 | 0.366 | 0.124 | 0.45 | 0.453 |
| CG11109 | DRSC11633 | 1.17 | 0.105 | 1.35 | 1.84 |
| CG11109 | DRSC42690 | 0.53 | -0.101 | 0.335 | 1.25 |
| eIF3j | DRSC06107 | -0.778 | -1.01 | -0.721 | -0.457 |
| eIF3j | DRSC33393 | -0.488 | -0.519 | -0.393 | – |
| Nmd3 | DRSC22834 | 0.773 | 0.566 | 0.663 | 0.943 |
| Nmd3 | DRSC42647 | -0.645 | -0.773 | -0.716 | -0.322 |

An excerpt from above, limited to “mean ATP z-score”.
ncm [DRSC31773] = -0.267
U2A [DRSC28070] = -1.05
U2A [DRSC31826] = 0.763
smg [DRSC11397] = -0.349
smg [DRSC28033] = 0.902
Rrp45 [DRSC20198] = -0.583
Rrp45 [DRSC29319] = -1.02
